Experimental data from patent US7947715B2, “Isoxazoline compound and pesticide” (Nissan Chemical Industries, Ltd., priority 2006, dated 2011).
Some of these results come from one statement about several compounds together. At least one compound was matched to its structure with a doubt left.

system: cabbage moth (Plutella xylostella); experiment: Insecticidal test against cabbage moth (leaf dip); format: in vivo; settings: 10 ppm (**), second instar larva, after 6 days

| Compound | insecticidal rate (rate of dead insects) [%] |
| --- | --- |
| O=C(CC1CC1)NCc1ccc(C2=NOC(c3cc(Br)c(Cl)c(Br)c3)(C(F)(F)F)C2)cc1Cl (centres unmarked) [2-476] | ≥ 80 |
| O=C(CC1CC1)NCc1ccc(C2=NOC(c3cccc(C(F)(F)F)c3)(C(F)(F)F)C2)cc1Br (centres unmarked) [2-477] | ≥ 80 |
| CC(NC(=O)CC1CC1)c1ccc(C2=NOC(c3cc(I)cc(C(F)(F)F)c3)(C(F)(F)F)C2)cc1 (centres unmarked) [2-482] | ≥ 80 |
| O=C(NCc1ccc(C2=NOC(c3cccc(C(F)(F)F)c3)(C(F)(F)F)C2)cc1Cl)C1CCOC1 (centres unmarked) [2-495] | ≥ 80 |
| O=C(NCc1ccc(C2=NOC(c3cccc(C(F)(F)F)c3)(C(F)(F)F)C2)cc1Cl)c1c(F)cc(F)cc1F (centres unmarked) [2-533] | ≥ 80 |
| O=C(NCc1ccc(C2=NOC(c3cccc(C(F)(F)F)c3)(C(F)(F)F)C2)cc1Br)c1c(F)cc(F)cc1F (centres unmarked) [2-534] | ≥ 80 |
| O=C(NCc1ccc(C2=NOC(c3ccc(Cl)c(C(F)(F)F)c3)(C(F)(F)F)C2)cc1Cl)NC1CC1 (centres unmarked) [4-123] | ≥ 80 |
| O=C(NCc1ccc(C2=NOC(c3ccc(Cl)c(C(F)(F)F)c3)(C(F)(F)F)C2)cc1Cl)NCC(F)(F)F (centres unmarked) [4-126] | ≥ 80 |
| CCNC(=O)NCc1ccc(C2=NOC(c3cc(Br)c(Cl)c(Br)c3)(C(F)(F)F)C2)cc1Cl (centres unmarked) [4-133] | ≥ 80 |
| CCNC(=O)NC(C)c1ccc(C2=NOC(c3cc(Br)c(F)c(Br)c3)(C(F)(F)F)C2)cc1 (centres unmarked) [4-139] | ≥ 80 |

same assay, conditions: 100 ppm (*), second instar larva, after 6 days

| Compound | insecticidal rate (rate of dead insects) [%] |
| --- | --- |
| O=C(CC1CC1)NCc1ccc(C2=NOC(c3cc(Br)c(F)c(Br)c3)(C(F)(F)F)C2)cc1Cl (centres unmarked) [2-475] | ≥ 80 |
| O=C(CC1CC1)NCc1ccc(C2=NOC(c3cc(Br)cc(C(F)(F)F)c3)(C(F)(F)F)C2)cc1Br (centres unmarked) [2-479] | ≥ 80 |
| CCC(C)C(=O)NCc1ccc(C2=NOC(c3cc(Br)cc(C(F)(F)F)c3)(C(F)(F)F)C2)cc1Cl (centres unmarked) [2-487] | ≥ 80 |
| O=C(CC(F)(F)F)NCc1ccc(C2=NOC(c3cc(I)cc(C(F)(F)F)c3)(C(F)(F)F)C2)cc1Cl (centres unmarked) [2-489] | ≥ 80 |
| O=C(NCc1ccc(C2=NOC(c3cc(Br)cc(C(F)(F)F)c3)(C(F)(F)F)C2)cc1Cl)C1CCOC1 (centres unmarked) [2-496] | ≥ 80 |
| O=C(NCc1ccc(C2=NOC(c3cc(I)cc(C(F)(F)F)c3)(C(F)(F)F)C2)cc1Cl)C1CCOC1 (centres unmarked) [2-497] | ≥ 80 |
| O=C(NCc1ccc(C2=NOC(c3cc(Br)cc(C(F)(F)F)c3)(C(F)(F)F)C2)cc1Br)C1CCOC1 (centres unmarked) [2-499] | ≥ 80 |
| C#CCCC(=O)NCc1ccc(C2=NOC(c3cccc(C(F)(F)F)c3)(C(F)(F)F)C2)cc1Cl (centres unmarked) [2-528] | ≥ 80 |
| O=C(NCc1ccc(C2=NOC(c3cc(Br)cc(C(F)(F)F)c3)(C(F)(F)F)C2)cc1Cl)c1cccnc1Cl (centres unmarked) [2-536] | ≥ 80 |
| O=C(NCc1ccc(C2=NOC(c3cc(I)cc(C(F)(F)F)c3)(C(F)(F)F)C2)cc1Cl)c1cccnc1Cl (centres unmarked) [2-537] | ≥ 80 |
| CCNC(=O)NCc1ccc(C2=NOC(c3cc(Br)cc(C(F)(F)F)c3)(C(F)(F)F)C2)cc1Cl (centres unmarked) [4-131] | ≥ 80 |
| CCNC(=O)NCc1ccc(C2=NOC(c3cc(Br)c(F)c(Br)c3)(C(F)(F)F)C2)cc1Cl (centres unmarked) [4-132] | ≥ 80 |
| CCNC(=O)NCc1ccc(C2=NOC(c3cc(Br)cc(C(F)(F)F)c3)(C(F)(F)F)C2)cc1Br (centres unmarked) [4-135] | ≥ 80 |
| CCNC(=O)NC(C)c1ccc(C2=NOC(c3cc(Br)cc(C(F)(F)F)c3)(C(F)(F)F)C2)cc1 (centres unmarked) [4-138] | ≥ 80 |
| CCN(Cc1ccc(C2=NOC(c3cc(Br)cc(C(F)(F)F)c3)(C(F)(F)F)C2)cc1Br)C(=O)C1CC1 (centres unmarked) [7-082] | ≥ 80 |
| C[S+]([O-])CCN(Cc1ccc(C2=NOC(c3cc(Br)cc(C(F)(F)F)c3)(C(F)(F)F)C2)cc1Br)C(=O)C1CC1 (centres unmarked) [7-090] | ≥ 80 |
| CS(=O)(=O)CCN(Cc1ccc(C2=NOC(c3cc(Br)cc(C(F)(F)F)c3)(C(F)(F)F)C2)cc1Br)C(=O)C1CC1 (centres unmarked) [7-091] | ≥ 80 |
| CC(=O)NCCN(Cc1ccc(C2=NOC(c3cc(Br)cc(C(F)(F)F)c3)(C(F)(F)F)C2)cc1Br)C(=O)C1CC1 (centres unmarked) [7-092] | ≥ 80 |
| NCc1ccc(C2=NOC(c3ccc(Cl)c(C(F)(F)F)c3)(C(F)(F)F)C2)cc1Cl (centres unmarked) [9-049] | ≥ 80 |
| CC(=O)NCCNCc1ccc(C2=NOC(c3cc(Br)cc(C(F)(F)F)c3)(C(F)(F)F)C2)cc1Br (centres unmarked) [9-060] | ≥ 80 |

same assay, conditions: 500 ppm, second instar larva, after 6 days

| Compound | insecticidal rate (rate of dead insects) [%] |
| --- | --- |
| CSCCN(Cc1ccc(C2=NOC(c3cc(Br)cc(C(F)(F)F)c3)(C(F)(F)F)C2)cc1Br)C(=O)C1CC1 (centres unmarked) [7-089] | ≥ 80 |
| O=C1c2ccccc2C(=O)N1Cc1ccc(C2=NOC(c3ccc(Cl)c(C(F)(F)F)c3)(C(F)(F)F)C2)cc1Cl (centres unmarked) [11-019] | ≥ 80 |
